In paper PMC10878145:
No constants are given. Whether binding was seen depends on the method and setting. In cells and extracts the contact can be indirect. Some binding calls cover weakened binding; strength is not graded here.

Target: T1, PDK1 (UniProt O15530)
T1 sequence: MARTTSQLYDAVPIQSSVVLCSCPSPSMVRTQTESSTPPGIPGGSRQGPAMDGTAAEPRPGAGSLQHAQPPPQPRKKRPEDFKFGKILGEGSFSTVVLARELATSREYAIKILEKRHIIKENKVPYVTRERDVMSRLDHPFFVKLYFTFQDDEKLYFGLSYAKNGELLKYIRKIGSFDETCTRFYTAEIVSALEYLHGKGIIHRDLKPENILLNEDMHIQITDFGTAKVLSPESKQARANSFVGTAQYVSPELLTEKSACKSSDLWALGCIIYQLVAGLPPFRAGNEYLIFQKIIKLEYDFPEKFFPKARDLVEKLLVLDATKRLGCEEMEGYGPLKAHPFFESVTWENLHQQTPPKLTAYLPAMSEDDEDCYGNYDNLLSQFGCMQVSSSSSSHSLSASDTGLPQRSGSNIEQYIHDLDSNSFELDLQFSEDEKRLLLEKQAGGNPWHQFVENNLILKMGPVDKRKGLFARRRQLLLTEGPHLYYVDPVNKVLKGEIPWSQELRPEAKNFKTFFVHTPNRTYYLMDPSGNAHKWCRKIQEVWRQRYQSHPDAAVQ
Test: co-IP; exogenous co-IP of transfected proteins in HEK-293T cells; lysis buffer 150 mM NaCl, 150 mM Tris, 0.4% NP-40, pH 7.4; antibody 4-6 hrs at 4 °C, protein A magnetic beads 2 hrs at 4 °C; immunoblot; some experiments quantitative with UPP1-WT or UPP1-R94A co-overexpressed, one with SC79

B1: UPP1-R94A (mutant UPP1) (enzyme, UniProt Q16831 1-310)
chain: MAATGANAEKAESHNDCPVRLLNPNIAKMKEDILYHFNLTTSRHNFPALFGDVKFVCVGGSPSRMKAFIRCVGAELGLDCPGRDYPNICAGTDAYAMYKVGPVLSVSHGMGIPSISIMLHELIKLLYYARCSNVTIIRIGTSGGIGLEPGTVVITEQAVDTCFKAEFEQIVLGKRVIRKTDLNKKLVQELLLCSAELSEFTTVVGNTMCTLDFYEGQGRLDGALCSYTEKDKQAYLEAAYAAGVRNIEMESSVFAAMCSACGLQAAVVCVTLLNRLEGDQISSPRNVLSEYQQRPQRLVSYFIKKKLSKA
Q: Which binding does the source give for B1 here?
A: Its binding is “binds”.
